Experimental data reported in US20140350088.
Construct, isoform or probe ends are uncertain for at least one entry. The comparison behind a weaker result is the experiment's own reference, which may not be listed here.

Sequences of proteins named here, by UniProt entry; tags and fusion partners are left off. Residues count along the entry.
UniProt P01275, 53-81: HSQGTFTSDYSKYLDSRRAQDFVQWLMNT

Molecular target: biotinylated human glucagon (Homo sapiens) (UniProt P01275)
Experiment: SPR
Details: synthetic protein, mirror-image nucleic acid

**Q.** Does “ACTCGAGAGGAAAGGTTGGTAAAGGTTCGGTUGGATTCACTCGAGT [259-H6-002-R32]” bind (L-DNA, rU at 32, reduced or lost vs parent, 37 C, synthetic backbone)?
**A.** binds more weakly

**Q.** Does “ACTCGAGAGGAAAGGTTGGTAAAGGTTCGGTTGGATTCACTCGAGT [259-H6-002-R43]” bind (L-DNA, ribo at 43, reduced or lost vs parent, 37 C, synthetic backbone)?
**A.** binds more weakly

**Q.** Does “ACTCGAGAGGAAAGGTTGGTAAAGGTTCGGTTGGAUTCACTCGAGT [259-H6-002-R36]” bind (L-DNA, rU at 36, variant of 259-H6-002)?
**A.** binds

**Q.** Does “ACTCGAGAGGAAAGGTTGGTAAAGGTTCGGTTGGAUTCACTCGAGT [259-H6-002-R13-R36]” bind (L-DNA, rA at 13, rU at 36, better than single substitutions, variant of 259-H6-002)?
**A.** binds

**Q.** Does “CAGACGUGUGUGGGUAGAUGCACCUGCGAUUCGCUAAAAAGUGCCACACGUCUG [NOX-G11-D24]” bind (L-RNA, 2'-deoxy at 24, improved vs parent, 37 C, synthetic backbone)?
**A.** binds

**Q.** Does “CAGACGUGUGUGGGUAGAUGCACCUGCGAUUCGCUAAAAAGUGCCACACGUCUG [NOX-G11-D21]” bind (L-RNA, dC at 21, improved vs parent, among best, variant of NOX-G11stabi2)?
**A.** binds

**Q.** Does “ACTCGAGAGGAAAGGUTGGTAAAGGTTCGGTTGGATTCACTCGAGT [259-H6-002-R16]” bind (L-DNA, rU at 16, reduced or lost vs parent, 37 C, synthetic backbone)?
**A.** binds more weakly

**Q.** Does “ACTCGAGAGGAAAGGTTGGTAAAGGTUCGGTTGGATTCACTCGAGT [259-H6-002-R27]” bind (L-DNA, rU at 27, reduced or lost vs parent, 37 C, synthetic backbone)?
**A.** binds more weakly

**Q.** Does “CAGACGUGUGUGGGUAGAUGCACCUGCGAUUCGCUAAAAAGUGCCACACGUCUG [NOX-G11-D02]” bind (L-RNA, 2'-deoxy at 2, improved vs parent, 37 C, synthetic backbone)?
**A.** binds

**Q.** Does “ACUCGAGAGGAAAGGTTGGTAAAGGTTCGGTTGGATTCACTCGAGT [259-H6-002-R03]” bind (L-DNA, rU at 3, reduced or lost binding vs parent, variant of 259-H6-002)?
**A.** binds more weakly

**Q.** Does “CAGACGUGUGUGGGUAGAUGCACCUGCGAUUCGCUAAAAAGUGCCACACGUCUG [NOX-G11-D06]” bind (L-RNA, 2'-deoxy at 6, improved vs parent, 37 C, synthetic backbone)?
**A.** binds

**Q.** Does “ACTCGAGAGGAAAGGTTGGTAAAGGTTCGGTTGGATTCACTCGAGT [259-H6-002-R13-R24]” bind (L-DNA, rA at 13, rG at 24, better than single substitutions, variant of 259-H6-002)?
**A.** binds

**Q.** Does “CAGACGUGUGUGGGUAGAUGCACCUGCGAUUCGCUAAAAAGUGCCACACGUCUG [NOX-G11-D10]” bind (L-RNA, 2'-deoxy at 10, improved vs parent, 37 C, synthetic backbone)?
**A.** binds

**Q.** Does “CAGACGUGUGUGGGUAGAUGCACCUGCGAUUCGCUAAAAAGUGCCACACGUCUG [NOX-G11-D41]” bind (L-RNA, dG at 41, reduced or lost binding vs parent, variant of NOX-G11stabi2)?
**A.** binds more weakly

**Q.** Does “CAGACGUGUGUGGGUAGAUGCACCUGCGAUUCGCUAAAAAGUGCCACACGUCUG [NOX-G11-D27]” bind (L-RNA, 2'-deoxy at 27, improved vs parent, 37 C, synthetic backbone)?
**A.** binds

**Q.** Does “ACTCGAGAGGAAAGGTTGGTAAAGGTTCGGTTGGATTCACTCGAGT [259-H6-002-R44]” bind (L-DNA, ribo at 44, improved vs parent, 37 C, synthetic backbone)?
**A.** binds

**Q.** Does “ACTCGAGAGGAAAGGTTGGTAAAGGTTCGGTTGGATTCACTCGAGT [259-H6-002-R24]” bind (L-DNA, rG at 24, variant of 259-H6-002)?
**A.** binds

**Q.** Does “ACTCGAGAGGAAAGGTTGGTAAAGGTTCGGTTGGATTCACTCGAGT [259-H6-002-R40]” bind (L-DNA, ribo at 40, reduced or lost vs parent, 37 C, synthetic backbone)?
**A.** binds more weakly

**Q.** Does “CAGACGUGUGUGGGUAGAUGCACCUGCGAUUCGCUAAAAAGUGCCACACGUCUG [NOX-G11-D22]” bind (L-RNA, dA at 22, improved vs parent, among best, variant of NOX-G11stabi2)?
**A.** binds

**Q.** Does “CAGACGTGUGUGGGUAGAUGCACCUGCGAUUCGCUAAAAAGUGCCACACGUCUG [NOX-G11-D07]” bind (L-RNA, dT at 7, improved vs parent, among best, variant of NOX-G11stabi2)?
**A.** binds

**Q.** Does “CAGACGUGUGUGGGUAGAUGCACCUGCGAUUCGCUAAAAAGUGCCACACGUCUG [NOX-G11-D01]” bind (L-RNA, 2'-deoxy at 1, improved vs parent, 37 C, synthetic backbone)?
**A.** binds

**Q.** Does “CAGACGUGUGUGGGUAGAUGCACCUGCGAUUCGCUAAAAAGUGCCACACGUCUG [NOX-G11-D14]” bind (L-RNA, 2'-deoxy at 14, improved vs parent, 37 C, synthetic backbone)?
**A.** binds

**Q.** Does “CAGACGUGUGUGGGUAGAUGCACCUGCGAUUCGCUAAAAAGUGCCACACGUCUG [NOX-G11-D47]” bind (L-RNA, dC at 47, reduced or lost binding vs parent, variant of NOX-G11stabi2)?
**A.** binds more weakly

**Q.** Does “ACTCGAGAGGAAAGGTTGGTAAAGGTTCGGTTGGATTCACTCGAGT [259-H6-002-R04]” bind (L-DNA, rC at 4, affinity unchanged vs parent, variant of 259-H6-002)?
**A.** binds

**Q.** Does “CAGACGUGUGUGGGUAGAUGCACCUGCGAUUCGCUAAAAAGUGCCACACGUCUG [NOX-G11-D18]” bind (L-RNA, 2'-deoxy at 18, improved vs parent, 37 C, synthetic backbone)?
**A.** binds

**Q.** Does “ACTCGAGAGGAAAGGTTGGTAAAGGTTCGGTTGGATTCACTCGAGT [259-H6-002-R38]” bind (L-DNA, ribo at 38, improved vs parent, 37 C, synthetic backbone)?
**A.** binds

**Q.** Does “ACTCGAGAGGAAAGGTTGGTAAAGGTTCGGTTGGATUCACTCGAGT [259-H6-002-R37]” bind (L-DNA, rU at 37, reduced or lost vs parent, 37 C, synthetic backbone)?
**A.** binds more weakly

**Q.** Does “CAGACGUGUGUGGGUAGAUGCACCUGCGAUUCGCUAAAAAGUGCCACACGUCUG [NOX-G11-D46]” bind (L-RNA, 2'-deoxy at 46, improved vs parent, 37 C, synthetic backbone)?
**A.** binds

**Q.** Does “ACTCGAGAGGAAAGGTTGGTAAAGGTTCGGTTGGATTCACTCGAGT [259-H6-002-R14]” bind (L-DNA, ribo at 14, reduced or lost vs parent, 37 C, synthetic backbone)?
**A.** binds more weakly

**Q.** Does “CAGACGUGUGUGGGUAGAUGCACCUGCGAUUCGCUAAAAAGUGCCACACGUCUG [NOX-G11-D13]” bind (L-RNA, 2'-deoxy at 13, improved vs parent, 37 C, synthetic backbone)?
**A.** binds

**Q.** Does “ACTCGAGAGGAAAGGTTGGTAAAGGTTCGGTTGGATTCACTCGAGT [259-H6-002-R18]” bind (L-DNA, ribo at 18, reduced or lost vs parent, 37 C, synthetic backbone)?
**A.** binds more weakly

**Q.** Does “CAGACGUGUGUGGGUAGAUGCACCUGCGAUUCGCUAAAAAGUGCCACACGUCUG [NOX-G11-D50]” bind (L-RNA, 2'-deoxy at 50, unchanged vs parent, 37 C, synthetic backbone)?
**A.** binds

**Q.** Does “ACTCGAGAGGAAAGGTTGGTAAAGGUTCGGTTGGATTCACTCGAGT [259-H6-002-R26]” bind (L-DNA, rU at 26, reduced or lost vs parent, 37 C, synthetic backbone)?
**A.** binds more weakly

**Q.** Does “ACTCGAGAGGAAAGGTTGGTAAAGGTTCGGTTGGATTCACTCGAGT [259-H6-002-R28]” bind (L-DNA, ribo at 28, reduced or lost vs parent, 37 C, synthetic backbone)?
**A.** binds more weakly

**Q.** Does “ACTCGAGAGGAAAGGTTGGTAAAGGTTCGGTTGGATTCACTCGAGT [259-H6-002-R05]” bind (L-DNA, rG at 5, reduced or lost binding vs parent, variant of 259-H6-002)?
**A.** binds more weakly

**Q.** Does “ACTCGAGAGGAAAGGTUGGTAAAGGTTCGGTTGGATTCACTCGAGT [259-H6-002-R17]” bind (L-DNA, rU at 17, reduced or lost vs parent, 37 C, synthetic backbone)?
**A.** binds more weakly

**Q.** Does “ACTCGAGAGGAAAGGTTGGTAAAGGTTCGGTTGGATTCACTCGAGT [259-H6-002-R12]” bind (L-DNA, rA at 12, reduced or lost binding vs parent, variant of 259-H6-002)?
**A.** binds more weakly

**Q.** Does “CAGACGUGUGUGGGUAGAUGCACCUGCGAUUCGCUAAAAAGUGCCACACGUCUG [NOX-G11-D29]” bind (L-RNA, 2'-deoxy at 29, improved vs parent, 37 C, synthetic backbone)?
**A.** binds

**Q.** Does “CAGACGUGUGUGGGUAGAUGCACCUGCGAUUCGCUAAAAAGUGCCACACGTCUG [NOX-G11-D51]” bind (L-RNA, dT at 51, reduced or lost binding vs parent, variant of NOX-G11stabi2)?
**A.** binds more weakly

**Q.** Does “CAGACGUGUGUGGGUAGAUGCACCUGCGAUUCGCUAAAAAGUGCCACACGUCUG [NOX-G11-D37]” bind (L-RNA, dA at 37, reduced or lost binding vs parent, variant of NOX-G11stabi2)?
**A.** binds more weakly

**Q.** Does “CAGACGUGUGUGGGUAGAUGCACCUGCGAUUCGCUAAAAAGUGCCACACGUCUG [NOX-G11-D05]” bind (L-RNA, 2'-deoxy at 5, improved vs parent, 37 C, synthetic backbone)?
**A.** binds

**Q.** Does “CAGACGUGUGUGGGUAGAUGCACCUGCGAUUCGCUAAAAAGUGCCACACGUCUG [NOX-G11-D04]” bind (L-RNA, 2'-deoxy at 4, improved vs parent, 37 C, synthetic backbone)?
**A.** binds

**Q.** Does “CAGACGUGUGUGGGUAGAUGCACCUGCGAUUCGCUAAAAAGUGCCACACGUCUG [NOX-G11-D32]” bind (L-RNA, 2'-deoxy at 32, improved vs parent, 37 C, synthetic backbone)?
**A.** binds

**Q.** Does “CAGACGUGUGUGGGUAGAUGCACCUGCGATUCGCUAAAAAGUGCCACACGUCUG [NOX-G11-D30]” bind (L-RNA, dT at 30, improved vs parent, 37 C, synthetic backbone)?
**A.** binds

**Q.** Does “ACTCGAGAGGAAAGGTTGGTAAAGGTTCGGTTGGATTCACTCGAGT [259-H6-002-R15]” bind (L-DNA, ribo at 15, reduced or lost vs parent, 37 C, synthetic backbone)?
**A.** binds more weakly

**Q.** Does “CAGACGUGUGUGGGUAGAUGCACCUGCGAUTCGCUAAAAAGUGCCACACGUCUG [NOX-G11-D31]” bind (L-RNA, dT at 31, unchanged vs parent, 37 C, synthetic backbone)?
**A.** binds

**Q.** Does “ACTCGAGAGGAAAGGTTGGTAAAGGTTCGGTTGGATTCACTCGAGT [259-H6-002-R01]” bind (L-DNA, rA at 1, reduced or lost binding vs parent, variant of 259-H6-002)?
**A.** binds more weakly
